Laboratory results reported in paper PMC10059057, “Antileishmanial and Antiplasmodial Activities of Secondary Metabolites from the Root of Antrocaryon klaineanum Pierre (Anacardiaceae)” (Molecules, 2023).

Assays:
[1] = system: P. falciparum chloroquine-resistant (PfDd2); assay: Antiplasmodial SYBR green I based fluorescence assay, chloroquine-resistant strain; format: cell-based, Plasmodium falciparum; conditions: for RI (resistance index): ratio IC50 on Dd2 / IC50 on 3D7
Description: (§1) The cryopreserved chloroquine-sensitive (Pf3D7-(MRA-102)), the multi-resistant (PfDd2) of Plasmodium falciparum, and the promastigote form of Leishmania donovani strains were obtained from BEI Resources (https://www.beiresources.org/ (accessed on 16 February 2019)) and are routinely cultured at the Antimicrobial and Biocontrol Agents Unit, University of Yaoundé I.
Plasmodium falciparum strains were maintained in 60 mm sterile petri dishes containing complete RPMI 1640 medium [RPMI 1640 (Sigma Aldrich) supplemented with 0.2% sodium bicarbonate (Sigma Aldrich), 0.5% Albumax II (Gibco), 1% hypoxanthine 100X (Gibco, Billings, MT, USA), 25 mM HEPES, and 0.04% gentamicin (Sigma Aldrich)] with fresh O^+ erythrocytes of healthy human volunteers suspended at 4% haematocrit (v/v) and incubated at 37 °C in a 5% CO2 humidified atmosphere. The medium was replaced daily with fresh complete medium to propagate the culture. Ten percent (10%) Giemsa-stained thin blood smears were examined microscopically under immersion oil to monitor cell-cycle transition and parasitaemia.
(§2) A stock solution was prepared at 100 mg/mL for each extract and fraction and at 50 mg/mL for isolated compound in 100% DMSO (Sigma–Aldrich, Munich, Germany). Master plates were then prepared by mixing 2 μL of each stock solution with 198 μL of fresh incomplete RPMI 1 640 culture medium to yield a concentration of 1 mg/mL for extract and fraction and of 0.5 mg/mL (1% DMSO) followed by a 5-fold serial dilution. Extracts and fractions were tested at concentrations ranging from 0.16 to 100 μg/mL, and isolated compounds at concentrations ranging from 0.08 to 50 μg/mL.
The use of mixed-stage cultures can enable the test molecules to interact with all the three stages (ring, trophozoite, and schizont) found during a 48-h life cycle of P. falciparum in culture. […]
(§3) Drug sensitivity assay was carried out in 96-well microtitration plates using the SYBR green I based fluorescence assay (Smilkstein et al., 2004). […]
(§4) The 96 wells flat-bottom assay plates with sorbitol-synchronized ring stage parasites (haematocrit: 1%, parasitaemia: 2%, 90 μL) were incubated in the presence of 10 µL of pre-diluted extracts, fractions, isolated compounds, and reference drugs [Chloroquine and Artemisinin (Sigma–Aldrich, Munich, Germany)] at different triplicate concentrations (100 µg/mL–0.16 µg/mL for extract/fractions and 50 µg/mL–0.08 µg/mL for compounds). […] Fluorescence was measured using the microplate reader Infinite M200 (Tecan) at an excitation and emission wavelength of 485 and 538 nm, respectively. […]
The resistance index (RI) was determined as the ratio of the IC50 of the samples on the multi-resistant strain Dd2 and the IC50 on the chloroquine-sensitive strain 3D7 as reported by Douanla et al..

[2] = system: P. falciparum chloroquine-sensitive (Pf3D7); assay: Antiplasmodial SYBR green I based fluorescence assay, chloroquine-sensitive strain; format: cell-based, Plasmodium falciparum; conditions: SI = CC50 (Raw cells)/IC50 (Pf3D7)
Description: as §1, with “I. […]” for “I.”
as §3, §4

[3] = system: L. donovani promastigotes 1S (MHOM/SD/62/1S); assay: Antileishmanial resazurin fluorimetric assay on promastigotes; format: cell-based, Leishmania donovani; conditions: SI = CC50 (Raw cells)/IC50 (L. donovani)
Description: as §1
Leishmania donovani promastiogtes were cultured in Medium 199 (Sigma, Darmstadt, Germany) supplemented with 10% Heat-Inactivated fetal Bovine Serum (HIFBS) (Sigma, Darmstadt, Germany) and 100 IU/mL penicillin/streptomycin. The culture was maintained in 75 cm^2 cell culture flask at 28 °C and sub-cultured every 72 h.
as §2
The antileishmanial activity of crude extracts, derived fractions, and isolated compounds against cultured L. donovani promastigotes was evaluated using the resazurin fluorimetric assay as described by Siqueira-Neto et al. (2010). […] After an additional incubation for 44 h, plates were then read on a Magelan Infinite M200 fluorescence plate reader (Tecan, Männedorf, Switzerland) at excitation and emission wavelengths of 530 and 590 nm, respectively. For each sample, growth inhibition percentages were calculated with Microsoft Excel Software; then, from the nonlinear regression fit, concentration–response curves were generated to deduce the median inhibitory concentration (IC50) using the GraphPad Prism 8.0 software.

| SMILES | RI (resistance index) [1] | SI_PfDd2 ([1]; SI = CC50 (Raw cells)/IC50 (PfDd2)) | SI_Pf3D7 [2] | L. donovani Promastigote SI [3] |
| --- | --- | --- | --- | --- |
| CCCCCCCC=CCCCCCCCCCCCCCC(O)C(O)C(COC1OC(CO)C(O)C(O)C1O)NC(=O)C(O)CCCCCCCCCCCCCC [Antroklaicerebroside (1), (2S,3S,4R,2′R,18E)N-((-3,4-dihydroxy-β-D-gluco-pyranosyl)oxy)hexacos-18-en-2-yl)-2-hydroxyhexadecanamide] | >1.19 | – | – | – |
| O=c1ccc2cc(O)c(O)cc2o1 [Esculetin (2), 6,7-dihydroxycoumarin] | 0.2 | >53.76 | >10.97 | – |
| COc1cc2ccc(=O)oc2cc1O [Scopoletin (3), 7-hydroxy-6-methoxycoumarin] | – | – | – | >78.13 |
| CC[C@H](/C=C/[C@@H](C)[C@H]1CC[C@H]2[C@@H]3CC=C4C[C@@H](O)CC[C@]4(C)[C@H]3CC[C@]12C)C(C)C [Stigmasterol (6), stigmasterol] | – | – | – | >54.70 |
| CC[C@H](CC[C@@H](C)[C@H]1CC[C@H]2[C@@H]3CC=C4C[C@@H](O)CC[C@]4(C)[C@H]3CC[C@]12C)C(C)C [β-sitosterol (5), β-sitosterol] | >1.1 | – | >11.04 | >89.93 |
